PubChem BioAssay AID652272 – Drosophila RNAi Screening Center, 2013

- Aim: 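Genes whose knock-down decreases or increases Hedgehog reporter output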 (primary screen)
- Cell system: Drosophila clone 8 (Cl8) cells
- Reagent: long dsRNA against Drosophila genes
- Measured: 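Plate reader light from a firefly reporter under a ptc promoter fragment that responds to Hedgehog, with Renilla light as transfection reference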
- Scale: firefly Hh reporter signal: higher = more ptc reporter light; Renilla reference signal: higher = more Renilla control light
- Rule for the call: 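Called a hit if the two-replicate mean z-score lies below -2 or above +3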
- Calls: active = hit: reporter lowered or raised; inactive = not a hit
In all, the deposit lists about 21,000 reagents; this is a random part of those that have a named target and a result. Of all reagents, 503 (2.4%) were called active. 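Raw plate light values, not normalised; calls rest on replicate z-scores that were not deposited; hits include reporter decreases as well as increases.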 Unmarked entries are inactive. The numbers tell different reagents against one gene apart. Not given: the amount of reagent, the time to read-out.

How did the screen score CG13364 #1?
firefly Hh reporter signal, replicate 1: 1.17e5; firefly Hh reporter signal, replicate 2: 2.45e5; Renilla reference signal, replicate 1: 4072; Renilla reference signal, replicate 2: 8556

What did the screen give for CG13364 #2?
firefly Hh reporter signal, replicate 1: 1.11e5; firefly Hh reporter signal, replicate 2: 2.31e5; Renilla reference signal, replicate 1: 3937; Renilla reference signal, replicate 2: 8080

What did the screen give for CG34404 #1?
firefly Hh reporter signal, replicate 1: 84226; firefly Hh reporter signal, replicate 2: 1.16e5; Renilla reference signal, replicate 1: 2139; Renilla reference signal, replicate 2: 2041

With CG34404 #2, what does the deposit list?
firefly Hh reporter signal, replicate 1: 1.18e5; firefly Hh reporter signal, replicate 2: 84417; Renilla reference signal, replicate 1: 4499; Renilla reference signal, replicate 2: 1613

For en (engrailed), how do the results read?
firefly Hh reporter signal, replicate 1: 87632; firefly Hh reporter signal, replicate 2: 43835; Renilla reference signal, replicate 1: 2503; Renilla reference signal, replicate 2: 3396

What is on record for Src64B (Src oncogene at 64B)?
firefly Hh reporter signal, replicate 1: 43493; firefly Hh reporter signal, replicate 2: 47357; Renilla reference signal, replicate 1: 5179; Renilla reference signal, replicate 2: 3525

With CG1371, what does the deposit list?
firefly Hh reporter signal, replicate 1: 58832; firefly Hh reporter signal, replicate 2: 38162; Renilla reference signal, replicate 1: 2585; Renilla reference signal, replicate 2: 1668

With CG7910, what does the deposit list?
firefly Hh reporter signal, replicate 1: 87940; firefly Hh reporter signal, replicate 2: 1.01e5; Renilla reference signal, replicate 1: 3064; Renilla reference signal, replicate 2: 3081

What is on record for CG10621?
firefly Hh reporter signal, replicate 1: 72315; firefly Hh reporter signal, replicate 2: 39773; Renilla reference signal, replicate 1: 1751; Renilla reference signal, replicate 2: 3529

How did the screen score CG5787?
firefly Hh reporter signal, replicate 1: 95762; firefly Hh reporter signal, replicate 2: 48385; Renilla reference signal, replicate 1: 3547; Renilla reference signal, replicate 2: 2130

What did the screen give for DIP-kappa (Dpr-interacting protein kappa) #1?
firefly Hh reporter signal, replicate 1: 5.28e5; firefly Hh reporter signal, replicate 2: 1.75e5; Renilla reference signal, replicate 1: 25079; Renilla reference signal, replicate 2: 6811

What did the screen give for DIP-kappa (Dpr-interacting protein kappa) #2?
firefly Hh reporter signal, replicate 1: 5.65e5; firefly Hh reporter signal, replicate 2: 2.30e5; Renilla reference signal, replicate 1: 26972; Renilla reference signal, replicate 2: 9218

How did the screen score CG13937?
firefly Hh reporter signal, replicate 1: 6.17e5; firefly Hh reporter signal, replicate 2: 1.20e5; Renilla reference signal, replicate 1: 5509; Renilla reference signal, replicate 2: 5509

What did the screen give for CG17327?
firefly Hh reporter signal, replicate 1: 1.08e5; firefly Hh reporter signal, replicate 2: 1.26e5; Renilla reference signal, replicate 1: 866; Renilla reference signal, replicate 2: 2363

What is on record for CG7745?
firefly Hh reporter signal, replicate 1: 54968; firefly Hh reporter signal, replicate 2: 36913; Renilla reference signal, replicate 1: 2330; Renilla reference signal, replicate 2: 1450

What did the screen give for CG12115?
firefly Hh reporter signal, replicate 1: 1.59e5; firefly Hh reporter signal, replicate 2: 3.53e5; Renilla reference signal, replicate 1: 5544; Renilla reference signal, replicate 2: 13264

With CG7560, what does the deposit list?
firefly Hh reporter signal, replicate 1: 63060; firefly Hh reporter signal, replicate 2: 72616; firefly Hh reporter signal, replicate 3: 80236; Renilla reference signal, replicate 1: 6032; Renilla reference signal, replicate 2: 5570

What did the screen give for exp (expansion)?
firefly Hh reporter signal, replicate 1: 50953; firefly Hh reporter signal, replicate 2: 20484; Renilla reference signal, replicate 1: 1160; Renilla reference signal, replicate 2: 1389

What is on record for Arp6 (Actin-related protein 6)?
firefly Hh reporter signal, replicate 1: 1.16e5; firefly Hh reporter signal, replicate 2: 1.02e5; Renilla reference signal, replicate 1: 2832; Renilla reference signal, replicate 2: 2219

For pont (pontin), how do the results read?
firefly Hh reporter signal, replicate 1: 95600 (active); firefly Hh reporter signal, replicate 2: 1.43e5; Renilla reference signal, replicate 1: 1801; Renilla reference signal, replicate 2: 2537

With Socs16D (Suppressor of Cytokine Signaling at 16D), what does the deposit list?
firefly Hh reporter signal, replicate 1: 53306; firefly Hh reporter signal, replicate 2: 2.18e5; Renilla reference signal, replicate 1: 2236; Renilla reference signal, replicate 2: 10068

In a second layout: entries from further up.
gene,dsRNA no.,"firefly Hh reporter signal, replicate 1","firefly Hh reporter signal, replicate 2","firefly Hh reporter signal, replicate 3","Renilla reference signal, replicate 1","Renilla reference signal, replicate 2"
CG17327,1,1.08e5,1.26e5,,866,2363
CG7745,1,54968,36913,,2330,1450
